Source: patent publication US20140154245A1 (L AND K BIOMED, published 2014)
Substitutions are numbered along the chain they refer to. No constants are given. Whether binding was seen depends on the method and setting. Some entries that bind do so weakly or less than the wild type.

T1: human EMAPII (endothelial monocyte activating polypeptide II) antigen (human) (UniProt Q12904)
T1 sequence: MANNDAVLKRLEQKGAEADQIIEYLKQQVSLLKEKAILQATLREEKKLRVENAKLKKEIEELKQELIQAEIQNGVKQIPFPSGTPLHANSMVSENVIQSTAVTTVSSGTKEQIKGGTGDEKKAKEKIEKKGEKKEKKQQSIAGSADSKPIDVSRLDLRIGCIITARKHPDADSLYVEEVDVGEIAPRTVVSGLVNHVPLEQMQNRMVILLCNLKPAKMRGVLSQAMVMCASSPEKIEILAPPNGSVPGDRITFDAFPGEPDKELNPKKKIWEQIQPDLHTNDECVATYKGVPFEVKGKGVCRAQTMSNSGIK

B1: mouse anti-EMAPII monoclonal antibody (antibody, V domains shown)
VH: QVQLQQSGAELARPGASVKMSCKASGYTFTSYTMHWVKQRPGQGLEWIGYINPSSGFTNYNQKFKDKATLTADKSSSTAYMQLSSLTSEDSAVYYCASRFAYWGQG
VL: DIVMTQSHKFMSTSVGDRVSITCKASQDVSTAVAWYQQKPGQSPKLLIFSASYRYTGVPDRFTGSGSGTDFTFTISSVQAEDLAVYYCQQHYSTPYTFGQG
notes: Mouse IgG1 with kappa light chain, from a hybridoma; also called murine EMAPII mAb; parental murine anti-EMAPII antibody
B2: BAP015hum04 (antibody, human IgG1, V domains shown)
VH: EVQLVQSGAEVKKPGATVKISCKVSGYTFTSYTMHWVRQAPGQGLEWMGYINPSSGFTNYNQKFKDRVTISADKSISTAYLQWSSLKASDTAMYYCASRFAYWGQG
VL: AIQLTQSPSSLSASVGDRVTITCKASQDVSTAVAWYQQKPGKAPKLLIYSASYRYTGVPSRFSGSGSGTDFTFTISSLQPEDIATYYCQQHYSTPYTFGQG
B3: BAP015hum05 (antibody, human IgG1, V domains shown)
VH: B2 VH
VL: DIVMTQTPLSLPVTPGEPASISCKASQDVSTAVAWYQQKPGKAPKLLIYSASYRYTGVPSRFSGSGSGTDFTFTISSLQPEDIATYYCQQHYSTPYTFGQG
B4: BAP015hum06 (antibody, human IgG1, V domains shown)
VH: B2 VH
VL: EIVLTQSPDFQSVTPKEKVTITCKASQDVSTAVAWYQQKPGKAPKLLIYSASYRYTGVPSRFSGSGSGTDFTFTISSLQPEDIATYYCQQHYSTPYTFGQG
B5: BAP015hum07 (antibody, human IgG1, V domains shown)
VH: B2 VH
VL: B4 VL with Q37L, K42Q, A43S, K45Q
B6: mouse/human chimeric antibody BAP015-1 (antibody, V domains shown)
VH: B1 VH
VL: B1 VL
notes: VL is fused to a human kappa constant region and VH to a human IgG1 constant region (full-length IgG1, from CHO-S supernatant); Three plasmid clones of the same construct were tested; they are treated as one molecule; also called chimeric anti-EMAPII antibody; chimeric clone BAP015-1
B7: BAP015hum01 (antibody, human IgG1, V domains shown)
VH: EVQLVQSGAEVKKPGESLRISCKGSGYTFTSYTMHWIRQSPSRGLEWLGYINPSSGFTNYNQKFKDRVTITADKSTSTAYMELSSLRSEDTAVYYCASRFAYWGQG
VL: B2 VL with K42Q, K45R, Q79E, P80A, I83A
B8: BAP015hum02 (antibody, human IgG1, V domains shown)
VH: B2 VH
VL: AIQLTQSPSSLSASVGDRVTITCKASQDVSTAVAWYQQKPGKAPKLLIYSASYRYTGIPPRFSGSGYGTDFTLTINNIESEDAAYYFCQQHYSTPYTFGQG
B9: BAP015hum03 (antibody, human IgG1, V domains shown)
VH: B2 VH
VL: B2 VL with S77R, Q79E, I83F, T85V, T94I

How the values were obtained:
[1] = target: T1, human EMAPII (endothelial monocyte activating polypeptide II) antigen (human); experiment: enzyme immunoassay of hybridoma culture supernatant on the antigen
[2] = target: T1, human EMAPII (endothelial monocyte activating polypeptide II) antigen (human); experiment: antigen-binding ELISA screen of CHO-S supernatants, specific activity (affinity/quant) against chimeric BAP015-1
[3] = target: T1, human EMAPII (endothelial monocyte activating polypeptide II) antigen (human); experiment: ELISA, EMAPII antigen coated on the plate
[4] = target: T1, human EMAPII (endothelial monocyte activating polypeptide II) antigen (human); experiment: ELISA, EMAPII antigen coated at 2.5 ug/ml, detected with anti-human-IgG HRP conjugate

Row | binding [2] | further results | Binder
1 | – | binding [1]: binds | B1
2 | binds | – | B2
3 | binds | – | B3
4 | binds | – | B4
5 | binds | – | B5
6 | – | binding [3]: binds; binding [4]: binds | B6
7 | binds | – | B7
8 | binds | – | B8
9 | binds | – | B9
